The structures appear in SMILES notation. ≈ marks a conversion by molar mass, not a printed value.

This is an account of results in patent publication US6124334A, “Hetero-aromatic ring substituted phenyloxazolidinone antimicrobials” (Pharmacia & Upjohn Company, priority 1998, dated 2000).

The subject of this assay is S. aureus, UC ®9213. As to the kind of experiment: In vitro MIC by agar dilution, S. aureus. The format is cell-based. The conditions noted are these: Staphylococcus aureus, UC9213, read-out: In vitro Activities: Minimum Inhibitory Concentrations, S. aureus, UC 9213. An excerpt: The oxazolidinone antibacterial agents of this invention have useful activity against a variety of organisms. The in vitro activity of compounds of this invention can be assessed by standard testing procedures such as the determination of minimum inhibitory concentration (MIC) by agar dilution as desribed in "Methods for Dilution Antimicrobial Susceptibility Tests for Bacteria That Grow Aerobically" (MFT) published January 1983 by the National Committee for Clinical Laboratory Standards, 771 East Lancaster Avenue, Villanova, Pa. 19084, USA. The activity of selected compounds of this invention against Staphylococcus aureus and Streptococcus pneumoniae are shown in Table 1.
(In general: In agar dilution the substance is mixed into plates at graded concentrations.)

In the case of `CN[C@H](CC(C)C)C(=O)N[C@H]1C(=O)N[C@@H](CC(N)=O)C(=O)N[C@H]2C(=O)N[C@H]3C(=O)N[C@H](C(=O)N[C@H](C(=O)O)c4cc(O)cc(O)c4-c4cc3ccc4O)[C@H](O)c3ccc(c(Cl)c3)Oc3cc2cc(c3O[C@@H]2O[C@H](CO)[C@@H](O)[C@H](O)[C@H]2O[C@H]2C[C@](C)(N)[C@H](O)[C@H](C)O2)Oc2ccc(cc2Cl)[C@H]1O` [Vancomycin], the MIC was 1 µg/mL (≈ 0.69 µM).
